Experimental data published in patent publication US9428564B2, “Muscle function enhancing peptide” (Universitatsklinikum Heidelberg, priority 2009, dated 2016).
Entries after “also recorded” stand apart in the source; their conditions may differ. Read-outs that look alike come from different tables or passages of the source. Part of at least one peptide drawing is inferred or uncertain, most often the ends. Where a SMILES comes first, the peptide text is derived from it.

Key:
[1] = test system: permeabilized cardiomyocytes; experiment: Ca2+-spark frequency in β-escin permeabilized cardiomyocytes; assay type: cell-based, rabbit
Protocol: Adult ventricular rabbit cardiomyocytes were isolated from four different animals as previously described (Loughrey C. M. et al., 2004, J. Physiol. 556:919-934) and permeabilized using β-escin (0.1 mg/ml). The permeabilized cells were incubated for 1 minute with rhodamine-labeled human S100A1 protein (0.1 μM) or FITC-labeled S100A1 C-terminal 20-mer peptide (0.1 μM) fused to a hydrophilic linker (amino acids 75 to 94 of human S100A1 fused to D-K-D-D-P-P (SEQ ID NO: 354)). Cells were monitored using a Bio-Rad 2000 laser scanning confocal microscope (LSCM). A striated staining pattern can be observed that resembles the ryanodine staining pattern (FIG. 4).
Isolated cardiomyocytes were perfused with a mock intracellular solution and permeabilized using β-escin (0.1 mg/ml). Fluo-3 free acid (10 μM) present in the perfusing solution was excited at 488 nm (Kr-laser) and measured at >515 nm applying epifluorescence optics of an inverted microscope with a ×60-1.2 NA water-immersion objective lens. Fluorescence was acquired in line scan mode at 2 ms line^−1; pixel dimension was 0.3 μm (512 pixels scan^−1; zoom=1.4). […] Ca^2+-sparks recorded in Fluo-3-containing solutions were quantified using an automated detection and measurement algorithm. […]

[2] = test system: permeabilized EDL murine skeletal muscle fibers; experiment: Isometric twitch force in permeabilized skeletal muscle fibers; assay type: cell-based, mouse
Protocol: Muscle Fiber Preparation and Experimental Solutions. All of the animals were handled according to the guidelines of the animal care committee of the University of Heidelberg. Male BALB/c mice (3-6-months-old) were sacrificed by an overdose of carbon dioxide, and muscle fiber preparation was carried out as previously described (Fink R. H. and Stephenson D. G., 1987, Pflugers Arch. Eur. J. Physiol. 409:374-380; Makabe M. et al., 1996, Pflugers Arch. Eur. J. Physiol. 432: 717-726). Either EDL (M. ext. dig. longum) or Soleus was isolated, and a small fiber bundle containing two to four single fibers (between 80 and 150 μm in diameter and 3-4-mm-long) was dissected in paraffin oil. The fiber preparation was glued between a force transducer pin (AE801, Senso-Noras, Horton, Norway) and a micrometer-adjustable screw. All of the experiments were carried out at room temperature (23-25° C.). All of the solutions were adjusted to pH 7.0. The free ion concentrations were calculated with the computer program REACT (version 2.0) from G. L. Smith (Glasgow, Scotland).
The high relaxation and the high activation solution contained 50 mM EGTA to buffer free Ca^2+, whereas the low relaxing solution contained 0.5 mM EGTA and 49.5 mM 1,6-diamino hexane-N,N,N,N-tetraacetic acid (HDTA), which in contrast to EGTA has very low affinity to Ca^2+. […]
Muscle fibers were skinned for 5 min in skinning solution while the sarcomere length was adjusted to 2.6±0.1 μm using the diffraction pattern of a helium-neon laser. […] Maximum force was measured in the high activating solution at pCa 4.28 and 5 mM caffeine. […] Several control transients were recorded before the fiber was exposed to the S100A1 protein or the S100A1 peptide mixture (N/H/C) or the C-terminal 20-mer alone, and the experiment was repeated as outlined above. […] The pCa-force relation in response to S100A1 interventions (0.001-10 μM) was measured with six different Ca^2+ concentrations (EDL, pCa 9.07, 5.91, 5.72, 5.49, 5.17, and 4.28), each containing 5 mM caffeine. […] The correlation coefficients were calculated to determine the accuracy of the fit. […]

[3] = test system: skeletal muscle fibers; experiment: Calcium homeostasis in intact skeletal muscle fibers; assay type: cell-based
[4] = test system: adult intact cardiomyocytes; experiment: Calcium homeostasis in adult intact cardiomyocytes; assay type: cell-based
[5] = test system: adult ventricular cardiomyocytes with leaky RyR2s; experiment: Apoptotic cell death of cardiomyocytes with leaky RyR2 under long-term caffeine exposure; assay type: cell-based
[6] = test system: β-adrenergic receptor (βAR) signaling including cAMP-dependent kinase (PKA) activity; experiment: Western blot with phospho-specific antibodies for βAR/PKA signaling (PLB, TnI); assay type: cell-based; conditions: basal conditions and βAR stimulation
[7] = test system: C57/B6 male/female mice with postischemic contractile dysfunction; experiment: Apoptosis (TUNEL) in failing myocardium of heart failure mice; assay type: in vivo, mouse; conditions: daily i.p. 225 ng (30 g BW) for 2 weeks
[8] = test system: isolated rat ventricular cardiomyocytes; assay type: cell-based; conditions: β-AR stimulated, 10^−9 M Isoproterenol
[9] = test system: intact extensor digitorum longum (EDL) skeletal muscle; experiment: Isometric and tetanic twitch force of isolated intact EDL skeletal muscle incubated with peptide; assay type: cell-based, mouse
[10] = test system: quiescent ventricular rat cardiomyocytes; experiment: Diastolic SR calcium sparks in Fluo-3 AM loaded quiescent intact ventricular cardiomyocytes; assay type: cell-based
[11] = test system: C57/B6 male mice; conditions: 225 ng i.v., metoprolol 62.5 μg i.p.
[12] = test system: C57/B6 male mice; experiment: In vivo hemodynamics by left ventricular catheterization in anesthetized mice; parameters: species or system mouse
[13] = test system: ventricular cardiomyocyte; experiment: SR calcium content by caffeine pulse in field-stimulated ventricular cardiomyocytes; assay type: cell-based; conditions: 1000 nM, field-stimulated (2 Hz), 10 mM caffeine
[14] = test system: Fluo-3 AM loaded cardiomyocytes; experiment: Store overload-induced calcium release (SOICR), βAR stimulation + 0.5 mM caffeine, in cardiomyocytes; assay type: cell-based
[15] = test system: C57/B6 male/female mice with postischemic contractile dysfunction; experiment: Experimental mouse heart failure model (postischemic contractile dysfunction): echocardiography and survival; assay type: in vivo; conditions: daily i.p. 225 ng (30 g BW) for 2 weeks
[16] = 1000 nM, βAR stimulation+0.5 mM caffeine

CC(C)C[C@H](NC(=O)[C@H](C)NC(=O)[C@H](C)NC(=O)[C@@H](NC(=O)[C@H](CC(C)C)NC(=O)[C@@H](NC(=O)[C@@H](NC(=O)[C@@H](N)Cc1ccc(O)cc1)C(C)C)C(C)C)C(C)C)C(=O)N[C@H](C(=O)N[C@H](C(=O)N[C@@H](C)C(=O)N[C@@H](CS)C(=O)N[C@@H](CC(N)=O)C(=O)N[C@@H](CC(N)=O)C(=O)N[C@@H](Cc1ccccc1)C(=O)N[C@@H](Cc1ccccc1)C(=O)N[C@@H](Cc1c[nH]c2ccccc12)C(=O)N[C@@H](CCC(=O)O)C(=O)N[C@@H](CC(N)=O)C(=O)N[C@@H](CO)C(=O)O)C(C)C)[C@@H](C)O [20-mer S100A1 C-terminal peptide, YVVLVAALTVACNNFFWENS, reference compound] (H-YVVLVAALTVACNNFFWENS-OH; N-terminus and C-terminus assumed)
diastolic calcium spark frequency [1]: decreases
isometric twitch force [2]: enhances; also recorded: equivalent biological potency to enhance isometric force
isometric twitch force ([2]; listed as C-terminal fragment): has a potency to enhance isometric twitch force
isometric twitch force ([2]; listed as S100A1 C-terminus): solely the S100A1 C-terminus mediates the inotropic effect
calcium homeostasis [3]: does not alter
calcium homeostasis [4]: does not alter

CC(C)C[C@H](NC(=O)[C@H](C)NC(=O)[C@H](C)NC(=O)[C@@H](NC(=O)[C@H](CC(C)C)NC(=O)[C@@H](NC(=O)[C@@H](NC(=O)[C@H](Cc1ccc(O)cc1)NC(=O)[C@@H]1CCCN1C(=O)[C@@H]1CCCN1C(=O)[C@H](CC(=O)O)NC(=O)[C@H](CC(=O)O)NC(=O)[C@H](CCCCN)NC(=O)[C@@H](N)CC(=O)O)C(C)C)C(C)C)C(C)C)C(=O)N[C@H](C(=O)N[C@H](C(=O)N[C@@H](C)C(=O)O)C(C)C)[C@@H](C)O [S100A1ct6/11, D-K-D-D-P-P-Y-V-V-L-V-A-A-L-T-V-A] (H-DKDDPPYVVLVAALTVA-OH; N-terminus and C-terminus assumed)
apoptotic cardiomyocytes [5]: significantly less apoptotic cardiomyocytes
DNA laddering ([5]; DNA gel, two independent experiments): laddered DNA in control but not S100A1ct6/11 treated cardiomyocytes
effect on βAR signaling including PKA activity at PLB and TnI [6]: neither recruits nor alters
apoptosis in failing hearts (TUNEL) [7]: significantly diminished apoptosis
inotropic effect (calcium transients) under βAR stimulation [8]: additive to and independent of β-adrenergic stimulation
inotropic effect (calcium transients) under βAR stimulation ([8]; listed as S100A1Ct6/11): additive and preserved under βAR stimulation
specific isometric twitch force ([9]; 1 μM for 45 min, intact EDL muscle): significantly enhanced
tetanic twitch force ([9]; 1 μM for 45 min, intact EDL muscle, 125 Hz for 175 ms): significantly enhanced
EDL isometric and tetanic twitch force, dose dependence ([9]; extracellular application 0.1-1 μM): significantly enhances EDL isometric and tetanic twitch force in a dose-dependent manner
calcium spark frequency ([10]; 100 nM, basal conditions): decreases
calcium spark frequency ([10]; 1000 nM): enhances
effect on negative inotropic and chronotropic effect of metoprolol [11]: antagonized the negative inotropic but not the negative chronotropic effect of metoprolol
dependence of inotropic effect on heart rate ([12]; 225 ng i.v.): independent of heart rate
contractile performance under βAR stimulation ([12]; 225 ng i.v. plus i.v. isoproterenol (250 pg)): preserved and additive to i.v. isoproterenol application
basal contractile performance (left ventricular catheterization) ([12]; 225 ng i.v., anesthetized mice): enhanced contractile performance under basal and βAR-stimulated conditions; also recorded: significantly enhanced
effectiveness after other routes ([12]; intraperitoneal and subcutaneous use): effective with delayed onset
duration of enhancement of left ventricular contractile performance ([12]; single i.v. application of 225 ng, anesthetized mice (30 g BW)): 3 h
SR calcium content (amplitude of the caffeine evoked calcium transient) [13]: greater
SOICR triggered calcium waves ([14]; 100 nM, βAR stimulation+0.5 mM caffeine): completely prevented
SOICR triggered calcium waves [14, 16]: completely prevented
SR calcium leak [14, 16]: effectively antagonizes the SR calcium leak
protection from pro-arrhythmic SOICR ([14]; 10^−7 M Isoproterenol+0.5 mM caffeine, effective at 100 and 1000 nM): protects cardiomyocytes from pro-arrhythmic store-overload-induced calcium release (SOICR)
abnormal calcium spark frequency and spatial characteristics ([14]; in the presence of isoproterenol/caffeine): normalizing
cardiac (left ventricular) performance, serial echocardiography [15]: restoring hemodynamic function; also recorded: significantly improved cardiac performance
